Measurements reported in PubChem BioAssay AID1224830 (NIAID, 2016)
Here is an unselected part of about 18,000 reagents. About 2,900 of them (16%) were called active. 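Calls are made per well; low scores hint the gene aids the LPS response, high scores that it dampens it.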 Repeated entries: four replicate wells of each siRNA pool.

Screen: 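Regulators of TLR4 signalling towards TNF-alpha in macrophage-like cells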 (primary screen)
System: human THP-1 monocytic leukaemia cells, TNF dual-luciferase reporter clone, PMA-differentiated to macrophage-like cells
Reagents: siRNA pool against human genes, 50 nM
Time to read-out: LPS for 4 h, given about 3 days after siRNA transfection
Challenge: bacterial LPS (TLR4 ligand), 10 ng/ml
Measurement: 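Ratio of firefly to renilla light, scaled to the plate median and expressed as a robust z-score per replicate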
Scale: TNF reporter robust z-score: higher = stronger TNF reporter response to LPS
Call rule: 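Each well counts as active if its z-score is over 2.8 or under -1.5; controls are left without a call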

| Target gene | TNF reporter robust z-score | Outcome |
| --- | --- | --- |
| SFRP4 (GeneID 6424) | 0.03 | inactive |
| SFRP4 (GeneID 6424) | 1.08 | inactive |
| SFRP4 (GeneID 6424) | -0.57 | inactive |
| SFRP4 (GeneID 6424) | -0.15 | inactive |
| SENP2 (GeneID 59343) | -0.78 | inactive |
| SENP2 (GeneID 59343) | -0.43 | inactive |
| SENP2 (GeneID 59343) | -1.15 | inactive |
| SENP2 (GeneID 59343) | 1.03 | inactive |
| TRIM5 (GeneID 85363) | 1.03 | inactive |
| TRIM5 (GeneID 85363) | 1.02 | inactive |
| TRIM5 (GeneID 85363) | 0.49 | inactive |
| TRIM5 (GeneID 85363) | 0.59 | inactive |
| CBX1 (GeneID 10951) | 0.03 | inactive |
| CBX1 (GeneID 10951) | 0.98 | inactive |
| CBX1 (GeneID 10951) | 0.25 | inactive |
| CBX1 (GeneID 10951) | 0.59 | inactive |
| MTUS1 (GeneID 57509) | -0.79 | inactive |
| MTUS1 (GeneID 57509) | -1.11 | inactive |
| MTUS1 (GeneID 57509) | -0.67 | inactive |
| MTUS1 (GeneID 57509) | -0.25 | inactive |
| OSBPL3 (GeneID 26031) | -0.63 | inactive |
| OSBPL3 (GeneID 26031) | -0.4 | inactive |
| OSBPL3 (GeneID 26031) | -0.48 | inactive |
| ELK4 (GeneID 2005) | -1.84 | active |
| ELK4 (GeneID 2005) | -1.61 | active |
| ELK4 (GeneID 2005) | -2 | active |
| ELK4 (GeneID 2005) | -2.11 | active |
| HPS3 (GeneID 84343) | 1.15 | inactive |
| HPS3 (GeneID 84343) | 0.55 | inactive |
| HPS3 (GeneID 84343) | -0.52 | inactive |
| HPS3 (GeneID 84343) | 0.83 | inactive |
| NR1H3 (GeneID 10062) | -0.27 | inactive |
| NR1H3 (GeneID 10062) | 0.18 | inactive |
| NR1H3 (GeneID 10062) | -0.44 | inactive |
| NR1H3 (GeneID 10062) | -0.61 | inactive |
| TRIM74 (GeneID 378108) | 1.1 | inactive |
| TRIM74 (GeneID 378108) | 0.48 | inactive |
| TRIM74 (GeneID 378108) | 1.57 | inactive |
| TRIM74 (GeneID 378108) | -0.76 | inactive |
| ATP2A1 (GeneID 487) | -1.62 | active |
| ATP2A1 (GeneID 487) | -0.94 | inactive |
| ATP2A1 (GeneID 487) | -1.31 | inactive |
| SKP1 (GeneID 6500) | -0.66 | inactive |
| SKP1 (GeneID 6500) | -0.2 | inactive |
| SKP1 (GeneID 6500) | -0.73 | inactive |
| SKP1 (GeneID 6500) | 0.3 | inactive |
| ACOT8 (GeneID 10005) | 0.06 | inactive |
| ACOT8 (GeneID 10005) | 0.45 | inactive |
| ACOT8 (GeneID 10005) | -0.55 | inactive |
| ACOT8 (GeneID 10005) | -0.25 | inactive |
| CASP10 (GeneID 843) | -0.94 | inactive |
| CASP10 (GeneID 843) | 0.93 | inactive |
| CASP10 (GeneID 843) | 0.82 | inactive |
| CASP10 (GeneID 843) | -0.41 | inactive |
| CEACAM8 (GeneID 1088) | -0.74 | inactive |
| CEACAM8 (GeneID 1088) | -0.53 | inactive |
| CEACAM8 (GeneID 1088) | -0.75 | inactive |
| CEACAM8 (GeneID 1088) | -0.08 | inactive |
| SNRNP48 (GeneID 154007) | 0.44 | inactive |
| SNRNP48 (GeneID 154007) | 1.17 | inactive |
| SNRNP48 (GeneID 154007) | 0.89 | inactive |
| SNRNP48 (GeneID 154007) | 1.58 | inactive |
| DHPS (GeneID 1725) | 1.43 | inactive |
| DHPS (GeneID 1725) | 3.06 | active |
| DHPS (GeneID 1725) | 2.03 | inactive |
| DHPS (GeneID 1725) | 2.07 | inactive |
| FHL2 (GeneID 2274) | -1.29 | inactive |
| FHL2 (GeneID 2274) | -1.06 | inactive |
| FHL2 (GeneID 2274) | -0.93 | inactive |
| FHL2 (GeneID 2274) | -1.18 | inactive |
| MAK (GeneID 4117) | 1.55 | inactive |
| MAK (GeneID 4117) | 2.85 | active |
| MAK (GeneID 4117) | 0.69 | inactive |
| MAK (GeneID 4117) | 3.5 | active |
| KMT2D (GeneID 8085) | 2.85 | active |
| KMT2D (GeneID 8085) | 2.31 | inactive |
| KMT2D (GeneID 8085) | 0.27 | inactive |
| KMT2D (GeneID 8085) | -0.16 | inactive |
| MATR3 (GeneID 9782) | 0.87 | inactive |
| MATR3 (GeneID 9782) | 0.69 | inactive |
| MATR3 (GeneID 9782) | 0.97 | inactive |
| MATR3 (GeneID 9782) | 0.27 | inactive |
| LRIF1 (GeneID 55791) | -1.23 | inactive |
| LRIF1 (GeneID 55791) | -0.82 | inactive |
| LRIF1 (GeneID 55791) | -1.46 | inactive |
| LRIF1 (GeneID 55791) | -1.4 | inactive |
| LCE1B (GeneID 353132) | – | inactive |
| LCE1B (GeneID 353132) | -0.25 | inactive |
| LCE1B (GeneID 353132) | -0.5 | inactive |
| LCE1B (GeneID 353132) | -0.33 | inactive |
| ATP5F1B (GeneID 506) | -0.48 | inactive |
| ATP5F1B (GeneID 506) | -0.1 | inactive |
| ATP5F1B (GeneID 506) | -0.56 | inactive |
| ATP5F1B (GeneID 506) | 0.18 | inactive |
| PCBP3 (GeneID 54039) | -0.41 | inactive |
| PCBP3 (GeneID 54039) | -0.36 | inactive |
| PCBP3 (GeneID 54039) | 0.05 | inactive |
| PCBP3 (GeneID 54039) | -1.33 | inactive |
| CIMIP1 (GeneID 128602) | 1.6 | inactive |
| CIMIP1 (GeneID 128602) | 1.51 | inactive |
| CIMIP1 (GeneID 128602) | 1.83 | inactive |
| CIMIP1 (GeneID 128602) | 2.73 | inactive |
| ATP5F1A (GeneID 498) | 1.65 | inactive |
| ATP5F1A (GeneID 498) | 1.49 | inactive |
| ATP5F1A (GeneID 498) | 1.06 | inactive |
| ATP5F1A (GeneID 498) | 0.05 | inactive |
| NDUFB7 (GeneID 4713) | -0.7 | inactive |
| NDUFB7 (GeneID 4713) | 0.45 | inactive |
| NDUFB7 (GeneID 4713) | 0.43 | inactive |
| NDUFB7 (GeneID 4713) | 1.22 | inactive |

5 entries already listed, ordered by “TNF reporter robust z-score”, highest first:
| Target gene | TNF reporter robust z-score | Outcome |
| --- | --- | --- |
| SNRNP48 (GeneID 154007) | 1.17 | inactive |
| SNRNP48 (GeneID 154007) | 0.89 | inactive |
| SNRNP48 (GeneID 154007) | 0.44 | inactive |
| CEACAM8 (GeneID 1088) | -0.08 | inactive |
| CEACAM8 (GeneID 1088) | -0.75 | inactive |
